This experiment addresses PP1α_(7-300) (co-expressed with GFP-I3_(27-68) in Expi293F cells) (UniProt P62136). In words: crystal structure; I3_(27-68) and PP1α_(7-300) co-expressed in Expi293F cells; complex crystallised at 6.5 mg/ml; 2.0 Å.

Chains of the proteins cited; added tags and fusions are not shown. Residues count along the entry.
UniProt P62136, residues 7-300: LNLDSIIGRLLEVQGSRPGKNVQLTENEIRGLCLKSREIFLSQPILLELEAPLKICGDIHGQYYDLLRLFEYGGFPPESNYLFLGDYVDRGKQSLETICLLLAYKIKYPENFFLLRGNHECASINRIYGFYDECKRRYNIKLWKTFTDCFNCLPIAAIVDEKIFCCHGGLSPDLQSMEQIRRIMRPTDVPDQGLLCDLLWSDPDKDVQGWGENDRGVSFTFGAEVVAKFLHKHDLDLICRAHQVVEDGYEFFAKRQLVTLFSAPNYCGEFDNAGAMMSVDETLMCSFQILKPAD

No constants are given. Whether binding was seen depends on the method and setting. Some entries that bind do so weakly or less than the wild type. Sequences can lack the tags named with a protein.

Turning to SLTIKLRKRKPEKKVEWTSDTVDNEHMGRRSSKCCCIYEKPR (domain or fragment, UniProt O60927 27-68) [I3_(27-68) (expressed as GFP-I3_(27-68) with PP1α_(7-300) in Expi293F cells)], the binding result was “binds”.

These data come from PMC10066265, “Inhibitor-3 inhibits Protein Phosphatase 1 via a metal binding dynamic protein–protein interaction” (Nature Communications, 2023).
